Results are given in words; binding and its absence hold for the method and conditions named. Binding seen in cells or lysates may run through a third protein. Some entries that bind do so weakly or less than the wild type.
How the values were obtained:
[1] = biological target: Myc-tagged Dishevelled (Dsh-Myc) (D. melanogaster) (UniProt P51140); assay: co-IP; S2 cell lysates in NP-40 buffer (1% NP-40, 150 mM NaCl, 50 mM Tris-Cl, pH 8); agarose anti-Myc or anti-HA; Dsh-Myc transfected, Dlg1 endogenous or transfected as HA-Dlg1
[2] = biological target: GFP-tagged Dishevelled (Dsh-GFP) expressed under the dsh promoter (D. melanogaster) (UniProt P51140); assay: co-IP; lysates of third instar wing imaginal discs expressing dsh-gfp under the dsh promoter, NP-40 buffer; agarose anti-GFP

Protein sequences, listed by entry. Tags and fused reporters are not part of them.
UniProt P51140: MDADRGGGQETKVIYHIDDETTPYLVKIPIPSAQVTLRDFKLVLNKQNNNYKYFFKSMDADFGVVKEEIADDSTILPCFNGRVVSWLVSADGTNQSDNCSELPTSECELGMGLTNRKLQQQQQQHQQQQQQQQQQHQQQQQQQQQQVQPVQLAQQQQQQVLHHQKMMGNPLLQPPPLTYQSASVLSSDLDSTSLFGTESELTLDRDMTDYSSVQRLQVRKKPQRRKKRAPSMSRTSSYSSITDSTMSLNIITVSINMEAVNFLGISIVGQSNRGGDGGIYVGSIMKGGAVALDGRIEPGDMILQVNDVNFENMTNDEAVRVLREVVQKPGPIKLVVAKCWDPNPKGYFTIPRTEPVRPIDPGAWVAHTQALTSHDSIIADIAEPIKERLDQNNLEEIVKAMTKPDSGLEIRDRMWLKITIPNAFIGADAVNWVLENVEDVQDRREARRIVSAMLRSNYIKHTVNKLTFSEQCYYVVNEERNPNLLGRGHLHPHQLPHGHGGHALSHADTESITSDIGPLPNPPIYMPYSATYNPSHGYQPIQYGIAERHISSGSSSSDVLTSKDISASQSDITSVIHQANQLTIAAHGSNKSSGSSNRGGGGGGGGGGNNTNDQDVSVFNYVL

- binding [1]: binds
- binding [2]: binds
B1: Discs large 1 (Dlg1), endogenous (protein, UniProt P31007 1-970)
chain: MPVKKQEAHRALELLEDYHARLSEPQDRALRIAIERVIRIFKSRLFQALLDIQEFYELTLLDDSKSIQQKTAETLQIATKWEKDGQAVKIADFIKSSNLNRNCAYEFNNDASSNQTNQSALNQNPIANNVSAQAQAEALSRTFKSELEEILNQRMRIESDTENAKEPTVEQQQKQQQAQQRSSRSPQQQNPQQQQGSKSRSGSQTVNGDDSWLYEDIQLERGNSGLGFSIAGGTDNPHIGTDTSIYITKLISGGAAAADGRLSINDIIVSVNDVSVVDVPHASAVDALKKAGNVVKLHVKRKRGTATTPAAGSAAGDARDSAASGPKVIEIDLVKGGKGLGFSIAGGIGNQHIPGDNGIYVTKLMDGGAAQVDGRLSIGDKLIAVRTNGSEKNLENVTHELAVATLKSITDKVTLIIGKTQHLTTSASGGGGGGLSSGQQLSQSQSQLATSQSQSQVHQQQHATPMVNSQSTEPGSRYASTNVLAAVPPGTPRAVSTEDITREPRTITIQKGPQGLGFNIVGGEDGQGIYVSFILAGGPADLGSELKRGDQLLSVNNVNLTHATHEEAAQALKTSGGVVTLLAQYRPEEYNRFEARIQELKQQAALGAGGSGTLLRTTQKRSLYVRALFDYDPNRDDGLPSRGLPFKHGDILHVTNASDDEWWQARRVLGDNEDEQIGIVPSKRRWERKMRARDRSVKFQGHAAANNNLDKQSTLDRKKKNFTFSRKFPFMKSRDEKNEDGSDQEPFMLCYTQDDANAEGASEENVLSYEAVQRLSINYTRPVIILGPLKDRINDDLISEYPDKFGSCVPHTTRPKREYEVDGRDYHFVSSREQMERDIQNHLFIEAGQYNDNLYGTSVASVREVAEKGKHCILDVSGNAIKRLQVAQLYPVAVFIKPKSVDSVMEMNRRMTEEQAKKTYERAIKMEQEFGEYFTGVVQGDTIEEIYSKVKSMIWSQSGPTIWVPSKESL

From paper PMC5008907
